Assay: Cryo-TEM and confocal microscopy of membrane modified vesicles (incorporation, molecular orientation)
Settings: for accumulation in vesicle membranes (confocal fluorescence): multi-lamellar DMPC and DPPC vesicles, 5 mol % COE, excitation 488 nm; for molecular orientation within lipid bilayers: stationary vesicle, polarized excitation source

With `C[N+](C)(C)CCCCCCN(CCCCCC[N+](C)(C)C)c1ccc(C=Cc2ccc(C=Cc3ccc(N(CCCCCC[N+](C)(C)C)CCCCCC[N+](C)(C)C)cc3)cc2)cc1.[I-].[I-].[I-].[I-]` [DSBN+, 1,4-bis(4′-(N,N-bis(6″-(N,N,N-trimethylammonium)hexyl)amino)-styryl)benzene tetraiodide] the “accumulation in vesicle membranes (confocal fluorescence)” value was “preferential accumulation inside the vesicle membranes” and the “molecular orientation within lipid bilayers” value was “ordered orientation with the long axis perpendicular to the plane of the membrane”.
With `C[N+](C)(C)CCCCCCN(CCCCCC[N+](C)(C)C)c1ccc(/C=C/c2ccc(/C=C/c3ccc(/C=C/c4ccc(N(CCCCCC[N+](C)(C)C)CCCCCC[N+](C)(C)C)cc4)cc3)cc2)cc1` [DSSN+, 4,4′-bis(4′-(N,N-bis(6″-(N,N,N-trimethylammonium)hexyl)amino)-styryl)stilbene tetraiodide] the “accumulation in vesicle membranes (confocal fluorescence)” value was “preferential accumulation inside the vesicle membranes” and the “molecular orientation within lipid bilayers” value was “ordered orientation with the long axis perpendicular to the plane of the membrane”.

From patent publication US8614021B2, “Agents for enhanced charge transport across microbial membranes” (The United States of America as represented by the …, priority 2010, dated 2013)
